The nature of this assay: IkB Signaling. The following applies: ABC-DLBCL IkBa-CBG/CBR dual luciferase ratio (green luciferase fused to IkBa over red control in OCI-Ly3 lymphoma cells), 4 h. A digest of the protocol: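 Curves were fitted separately to fusion (green), unfused (red) and ratio luminescence, then classed by r2, magnitude and activity. Cells: OCI-Ly3, 4 h compound plus doxycycline at 37C; 10 uM MG-132 defined full response.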
[1] abbreviates: measured here: control luc red channel unless noted.

Our source for the AC50 values is PubChem BioAssay AID445 (National Center for Advancing Translational Sciences (NCATS), 2006).

The structures appear in SMILES notation. This is one part of the list. The main result of the screen is listed elsewhere. These columns were measured beside it and carry no call. Most of these compounds were active or inconclusive in the main read-out, so they are no random draw. Potencies come from curve fits of mixed quality, noted in brackets.

Turning to `CCOCCCNC(=O)c1[nH]c2cc(C)ccc2c1Sc1ccc(Cl)cc1`, the AC50 under setting [1] is 12.6 µM [falling, partial curve].

Take `COc1ccc(CCNC(=O)c2c(O)nc3c(C)cccn3c2=O)cc1`: the half-maximal activity concentration (AC50) under setting [1] is 39.8 µM [falling, single point].

For the molecule `COc1ccc(C(=O)N2c3ccccc3C(C)(c3ccc(Cl)cc3)CC2(C)C)cc1` (stereo not given), the AC50 under setting [1] was 3.98 µM [falling, partial curve].

`CCOCCc1nn2c(=O)cc(COC(=O)c3ccccc3NC(=O)C3CCCCC3)nc2s1`: the AC50 under setting [1] is 2.51 µM [rising, partial curve].

Take `Oc1ccccc1C1=Nc2nc3ccccc3n2C(c2ccccc2)C1` (stereo not given): the AC50 under setting [1] was 3.16 µM [falling, partial curve].

As for `COc1cccc(-c2nc(SCC(=O)Nc3ccc4c(c3)OCCO4)c(-c3ccccc3)[nH]2)c1`, the half-maximal activity concentration (AC50) under setting [1] is 3.98 µM [falling, full curve].

`COc1cc(NC(=O)c2c(F)c(F)c(F)c(F)c2F)c(OC)cc1Cl`: the AC50 under setting [1] was 12.6 µM [falling, partial curve].

With `O=C(CC(=O)c1cc(Cl)ccc1O)c1ccccc1`, the AC50 under setting [1] was 39.8 µM [rising, single point] [measured here: IkB-luc green channel].

For the molecule `Cc1ccccc1Nc1c(-c2ccco2)nc2c(C)cccn12`, the AC50 under setting [1] was 39.8 µM [falling, single point].

Take `Cc1ccc(CS(=O)(=O)c2ncc(Cl)c(C(=O)Nc3nc4ccc(C)cc4s3)n2)cc1`: the half-maximal activity concentration (AC50) under setting [1] was 7.94 µM [falling, full curve].

Regarding `CCOC(=O)c1sc2ncnc(NCC(c3cccs3)N(C)C)c2c1C` (stereo not given), the AC50 under setting [1] was 25.1 µM [falling, partial curve].

Take `Cc1n[nH]c(C)c1S(=O)(=O)N(CC(=O)Nc1ccc(C(F)(F)F)cc1)c1ccc(C(C)C)cc1`: under setting [1], the AC50 is 12.6 µM [falling, partial curve].

As for `CCOC(=O)CCNC(=O)Nc1ccc2nc(C)n(Cc3ccc(Cl)cc3)c(=O)c2c1`, the AC50 under setting [1] was 31.6 µM [falling, partial curve].

`COc1ccc(C)c2sc(N(Cc3cccnc3)C(=O)C3CCCCC3)nc12`: the AC50 under setting [1] is 7.94 µM [falling, partial curve].

As to `CCOC(=O)c1ccc(N2C(=O)c3n[nH]c(-c4ccco4)c3C2c2ccc(O)cc2)cc1` (stereo not given), under setting [1], the AC50 is 25.1 µM [falling, single point].

For `c1coc(CNc2nc(-c3ccncc3)cs2)c1`, under setting [1], the AC50 was 20 µM [falling, single point].

For the molecule `COc1ccc(C)cc1NC(=O)c1c(C)oc2ncn(CC(C)C)c(=O)c12`, the half-maximal activity concentration (AC50) under setting [1] was 39.8 µM [falling, single point].

Take `Cc1ccc(CSCC(=O)N2CCN(c3ccccc3F)CC2)cc1`: the concentration at half-maximal activity (AC50) under setting [1] was 25.1 µM [falling, single point].

`Cc1ccc(S(=O)(=O)CC(=O)Nc2sc3c(c2C#N)CCCC3)cc1`: the AC50 under setting [1] was 5.01 µM [rising, partial curve].

With `Cc1cc(C2CCCCC2)n(O)c(=O)c1`, under setting [1], the half-maximal activity concentration (AC50) is 10 µM [rising, partial curve] [measured here: IkB-luc green channel].

Take `O=C(Nc1ccc(Cl)cc1)N1CCC(c2nc(-c3ccc(F)cc3)no2)CC1`: the AC50 (measured here: IkB-luc green channel) is 10 µM [falling, partial curve, poor fit] and the AC50 (measured here: control luc red channel) was 12.6 µM [falling, partial curve].

Consider `COc1ccc(-c2cn3c(C)c(C(=O)Nc4cccc(C)n4)sc3n2)cc1`, for which, under setting [1], the AC50 is 0.398 µM [falling, full curve].

`Cc1ccccc1NC(=O)Cn1c(=O)oc2cc(Br)ccc21`: the AC50 under setting [1] is 2 µM [falling, partial curve].

As for `COc1ccc(N(CC(=O)Nc2cccc(Cl)c2C)S(=O)(=O)c2c(C)nn(C)c2C)cc1`, the AC50 under setting [1] was 12.6 µM [falling, partial curve].

Take `COc1ccc(C2=C(C)C(=NCCCN3CCN(c4cc(C)ccc4C)CC3)NS2(=O)=O)cc1`: under setting [1], the AC50 is 0.251 µM [falling, partial curve].

Consider `O=C(c1cc2c(s1)-c1ccccc1OC2)N1CCN(c2ccccc2F)CC1`, for which the AC50 under setting [1] is 12.6 µM [falling, partial curve].

Consider `CCCCN(CC)CCCNC(=O)c1nn(C)c2c1CS(=O)(=O)c1ccccc1-2`, for which the concentration at half-maximal activity (AC50) under setting [1] is 25.1 µM [falling, single point].

On to `CCOC(=O)C1CCCN(c2cc(C)nc3c(-c4ccccc4OC)c(C)nn23)C1` (stereo not given), for which the half-maximal activity concentration (AC50) under setting [1] was 39.8 µM [falling, single point].

Turning to `Cc1cccc2cc(CN(Cc3cccs3)C(c3nnnn3C3CCCC3)C(C)C)c(=O)[nH]c12` (stereo not given), the AC50 under setting [1] is 3.98 µM [falling, partial curve].

`O=C(Nc1cccc(OCc2cc(=O)n3c4c(sc3n2)CCCC4)c1)c1ccc(F)cc1`: the AC50 under setting [1] is 1 µM [falling, single point].

In the case of `Cc1ccc2nc(-c3cc(NC(=O)/C=C/c4ccccc4)ccc3Cl)oc2c1`, the concentration at half-maximal activity (AC50) under setting [1] was 5.01 µM [falling, partial curve].

As for `CCOc1ccc(-c2nnc(SCC(=O)NCCc3ccc(OC)c(OC)c3)nc2-c2ccc(OCC)cc2)cc1`, the AC50 under setting [1] was 39.8 µM [falling, partial curve, poor fit].

For `COc1ccc(C(=O)Nc2ccc3nc(N4CCC(C)CC4)cc(C)c3c2)cc1`, the AC50 under setting [1] was 0.398 µM [falling, single point].

For the molecule `COc1ccc(Cl)cc1-n1c(/C=C/c2cccc3ccccc23)nc2ccccc2c1=O`, the AC50 under setting [1] was 31.6 µM [falling, single point].

Turning to `CCC/C(O)=C1\C(=O)CC(C)(C)CC1=Nc1ccccc1OC`, the AC50 under setting [1] was 20 µM [falling, partial curve].

On to `O=C(CC1c2ccccc2Oc2ccccc21)N1CCN(c2ccccn2)CC1`, for which the concentration at half-maximal activity (AC50) under setting [1] was 15.8 µM [falling, partial curve].

Turning to `CCOc1cccc(C(c2c(C)n(C)n(-c3ccccc3)c2=O)c2c(C)n(C)n(-c3ccccc3)c2=O)c1OC`, the half-maximal activity concentration (AC50) under setting [1] was 20 µM [falling, partial curve].

In the case of `Cc1ccnc(NC(=O)C2CCN(S(=O)(=O)c3cccc4nsnc34)CC2)c1`, under setting [1], the AC50 is 12.6 µM [falling, partial curve].

Consider `CCOc1ccccc1NC(=O)Cn1c(=O)n(-c2ccc(F)cc2)c(=O)c2sc3ccccc3c21`, for which the half-maximal activity concentration (AC50) under setting [1] is 15.8 µM [falling, partial curve].

Broadly, the AC50 is the concentration at which the activity in the assay is half-maximal.
